# The campaign covered roughly 340,000 compounds. About 170 (0.05%) were called active. The shares of active, inactive and inconclusive entries below differ from those in the screen. The call rests on the fitted dose curve; in most records, active means well fitted inhibition curve with a large enough effect in the signal ratio, with a control signal flat (not every such curve was filed as active); inconclusive means small, poorly fitted or top-dose-only effect, or effect the other way, or a change in a side signal; inactive means flat fitted curve, though single readings scatter; the % refers to the signal ratio. A potency beside an inconclusive call is a rough fit, not a confirmed value.
# Assay: qHTS Assay to Find Inhibitors of Chronic Active B-Cell Receptor Signaling;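 on activity change, negative = inhibition: plate controls were basal doxycycline-induced cells for no effect and cells given 10 µM MG132 for full effect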
# Conditions: ABC-DLBCL IkBa-CBG/CBR reporter, luminescence ratio (green luciferase fused to IkBa over red control in TMD8 lymphoma cells), 4 h; activity change, negative = inhibition: at 46.1 µM (top of the series) unless noted
# Outline: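 Cell line TMD8 (human ABC DLBCL), stably expressing tet-inducible CBG68-IkBa fusion and CBR; IMDM/0.5% FBS; cpd up to 46 uM; dox induction, 4 h, 37C/5% CO2; dual luminescence; green/red ratio; MG132 control.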
# Potency means the concentration at half of the fitted maximal effect.
SMILES,Potency,"activity change, negative = inhibition"
O=C(NC1CCCCC1)N1CCc2ccccc21,"inconclusive: 25.9 µM [falling, single point]",–
O=C(O)CN1C(=O)c2ccc(C(=O)c3ccccc3)cc2C1=O,–,inconclusive: -2.05%
CC1(C)CC(CCNC(=O)CCl)(c2ccccc2)CCO1 (centres undefined),–,inconclusive: -14.5%
CCOc1ccccc1OCCOc1ccc(F)cc1,–,inconclusive: 11.1%
O=S(=O)(c1cc(Cl)ccc1Br)N1CCOCC1,–,inconclusive: -26.8%
O=C(NNC(=S)Nc1cccc2ccccc12)c1cccc(Br)c1,"inconclusive: 1.16 µM [falling, full curve]",–
CC(C)N(C(=O)CSc1nc2ccccc2n1Cc1ccc(F)cc1)C(C)C,"inconclusive: 11.6 µM [rising, partial curve, poor fit]",–
COc1ccc(NC(=O)C(CC(C)C)NC(=O)C2CCC(C)CC2)c(OC)c1 (centres undefined),–,inconclusive: 4.11%
COc1ccc(-c2csc3ncnc(N4CCN(S(=O)(=O)c5ccc(C)c(C)c5)CC4)c23)cc1,–,inconclusive: 9.68%
CCCC/C(O)=C1\C(=O)CC(C)(C)CC1=Nc1ccccc1OC,–,inactive
Cc1nn(-c2ccccc2)c(Cl)c1C(=O)NCC(C)c1ccccc1 (centres undefined),"inconclusive: 7.94 µM [rising, partial curve, poor fit]",–
COc1ccc(Nc2ncnc3ccccc23)c(OC)c1,"inconclusive: 18.4 µM [falling, single point]",–
O=C(Nc1cccc(-n2cnnn2)c1)c1ccc(OC(F)(F)F)cc1,–,inconclusive: 4.46%
COc1cc(OC)c(OC)cc1/C=N/NC(=O)c1cc(-c2cccn2C)n[nH]1,–,inconclusive: -15.4%
CSc1nc(=NC(C)=O)ss1,–,inactive
COc1ccccc1NC(=O)C1=C(C)NC(=O)NC1c1ccccc1[N+](=O)[O-] (centres undefined),"inconclusive: 5.62 µM [rising, single point]",–
Cc1ccc(-n2ncc3c(N4CCN(C)CC4)ncnc32)cc1C,–,inconclusive: -7.35%
CCN(CC)C(=O)CN(c1ccc(F)c(Cl)c1)S(C)(=O)=O,–,inconclusive: 2.65%
Cc1nc2ccccc2c2nc(NC(=O)C(F)(F)F)nn12,–,inconclusive: 3.16%
CC(C)OC(=O)CSc1nnc(-c2cnccn2)n1C,"inconclusive: 0.0651 µM [falling, full curve, poor fit]",–
C=CCN1C(=O)C(C)NC1=S (centres undefined),"inconclusive: 3.98 µM [falling, full curve]",–

SMILES,Potency,"activity change, negative = inhibition"
OC12CC3C[C@H](C1)C(N1CCOCC1)[C@@H](C3)C2 (some centres undefined),–,inactive
COc1ccc(C2=Nn3c(nnc3-c3ccccc3)SC2)cc1OC,"inconclusive: 1.84 µM [falling, full curve, poor fit]",–
CN(C)c1nc(/C=C(\C#N)C(N)=O)c(Cl)n1-c1ccc(F)cc1,–,inactive
Cn1nnc(NC(=S)NC(=O)c2ccc(-c3ccc(Br)cc3)o2)n1,–,inconclusive: 0.701%
COc1ccc(NC(=O)/C=C\C(=O)N(c2ccc(C(C)C)cc2)C(C(=O)NCc2ccco2)c2ccc(F)cc2)cc1 (centres undefined),–,inconclusive: -4.46%
COc1cnc(N(C)C)nc1Sc1cccc(Cl)c1,–,inconclusive: 14%
Nc1[nH]ncc1C(=O)Nc1cccc(C(F)(F)F)c1,–,inconclusive: 4.23%
Cc1cccc(C)c1NC(=O)c1cnccn1,–,inactive
Cc1sc2ncnc(N(C)C3CCCCC3)c2c1C,–,inconclusive: 7.32%
O=C(CN1C(=O)NC2(CCCC2)C1=O)Nc1nc2ccccc2s1,–,inconclusive: -13.1%
O=C(NCc1ccco1)C1CCN(c2nc3ccccc3n2Cc2ccccc2F)CC1,"inconclusive: 29.1 µM [falling, single point]",–
COc1ccccc1C(=O)Nc1ccnn1C1CCN(Cc2cc(C)c(C)cc2C)CC1,–,inactive
O=C(Nc1ccc(N2CCOCC2)c(Cl)c1)c1ccccc1Cl,"inconclusive: 2.51 µM [falling, full curve]",–
O=C(Nc1ccc(F)cc1F)c1cc(-c2ccco2)on1,"inconclusive: 35.5 µM [rising, partial curve]",–
COCCCNC(=O)/C=C1\Sc2ccccc2N(Cc2ccccc2F)C1=O,–,inconclusive: 3.18%
COc1ccc(NC(=O)CSc2n[nH]c(-c3ccccn3)n2)cc1,–,inactive
CCOc1ccc(S(=O)(=O)Nc2cc(S(=O)(=O)N3CCOCC3)ccc2OC)cc1,–,inactive
CC1=C(C)CS(=O)N(S(=O)(=O)c2ccc(Cl)cc2)C1 (centres undefined),–,inconclusive: -10.6%
C[C@H](CO)N1C[C@H](C)[C@@H](CN(C)S(=O)(=O)c2cn(C)cn2)Oc2ccc(NC(=O)Cc3ccccc3)cc2C1=O,–,inactive
C#CCOc1ccccc1/C=N/NC(=O)c1ccccc1OCc1ccccc1,"inconclusive: 0.501 µM [falling, full curve, poor fit]",–
COc1ccc(C)cc1S(=O)(=O)NC1CCCCC1C (centres undefined),–,inconclusive: 5.83%

# Of the compounds above, these have an NH in an aromatic ring:
SMILES,Potency,"activity change, negative = inhibition"
COc1cc(OC)c(OC)cc1/C=N/NC(=O)c1cc(-c2cccn2C)n[nH]1,–,inconclusive: -15.4%
Nc1[nH]ncc1C(=O)Nc1cccc(C(F)(F)F)c1,–,inconclusive: 4.23%
COc1ccc(NC(=O)CSc2n[nH]c(-c3ccccn3)n2)cc1,–,inactive

# Additional compounds

SMILES,Potency,"activity change, negative = inhibition"
COC(=O)CNC(=O)CSc1nnc(-c2ccc(OC)cc2)n1CC(C)C,–,inactive
O=C(CC1SC(=Nc2ccccc2)N(Cc2ccccn2)C1=O)Nc1cccc(Cl)c1 (centres undefined),–,inconclusive: 6.96%
O=C(NCc1ccco1)C(=O)c1c[nH]c2ccccc12,"inconclusive: 22.4 µM [falling, partial curve]",–
CN(Cc1ccco1)S(=O)(=O)c1nnc(NC(=O)c2cccc(Cl)c2)s1,–,inconclusive: 9.35%
COc1cc(CC(C#N)(CO)c2nc3ccccc3[nH]2)ccc1OC(F)F (centres undefined),–,inactive
COc1cc(C(=O)N/N=C/C2CC=CCC2)cc(OC)c1OC (centres undefined),–,inconclusive: -28.4%
CC(C)C[C@@H]1NC(=O)[C@H](Cc2ccc(O)cc2)NC(=O)c2cc([N+](=O)[O-])cc(I)c2NCCC[C@@H](C(N)=O)NC1=O,–,inconclusive: -3.88%
CC(=O)Nc1ccc(S(=O)(=O)Nc2nc3c(s2)CCCC3)cc1,–,inconclusive: 0.212%
CN(C)c1ccc(C(=O)N2CC(=O)N(CCc3ccccc3)C(=O)C2)cc1,–,inconclusive: 0.774%
CC(CCO)Nc1nc2c([nH]1)c(=O)n(C)c(=O)n2C (centres undefined),–,inconclusive: 4.8%
O=C(N1CCCCC1)N1CCN(c2ccc(Cl)cc2)CC1,–,inconclusive: 1.45%
O=C(NNC(=O)c1ccc2ccccc2n1)c1ccc(O)cc1,"inconclusive: 29.1 µM [rising, single point]",–
CN(CCC#N)C(=S)Nc1ccc(F)cc1,–,inactive
COc1ccc(CN2C(=O)C(Cc3ccccc3)Nc3ncnc(N4CCN(c5ccccc5)CC4)c32)cc1 (centres undefined),–,inactive
Cn1c(C(=O)N[C@@H](C(=O)O)c2ccccc2)cc2cc(F)ccc21,–,inconclusive: -44.9%
CCCCOc1ccc(-c2c(C(=O)Nc3ccccc3)c(C)[nH]c(=S)c2C#N)cc1,–,inactive
Cc1ccc(SC[C@H](Cc2ccccc2)N2CC[C@@H](C)CCC2=O)cc1,–,inactive
COc1cc(OC)c(NC(=S)Nc2cccc(C(C)=O)c2)cc1Cl,–,inactive
Cn1cc(S(=O)(=O)NC(c2ccccc2)c2ccccc2)c(=O)n(C)c1=O,–,inconclusive: 5.76%
CN1/C(=N\O)c2cccc3cccc1c23,"inconclusive: 35.5 µM [falling, single point]",–
COc1cc(C#Cc2c(-c3cncn3C)n(C)c3ccc(-c4cnc(N5CCOCC5)nc4)cc23)cc(OC)c1,–,inconclusive: 1.96%

SMILES,Potency,"activity change, negative = inhibition"
Cn1c(=O)oc2cc(S(=O)(=O)N3CCC(C(=O)NCc4cccs4)CC3)ccc21,–,inconclusive: 9.34%
O=C(Nc1ccc(F)cc1)Nc1ccc(Cl)cn1,–,inconclusive: 4.78%
CCOc1ccccc1OCC(=O)Nc1nc2ccccc2[nH]1,–,inconclusive: -23.7%
CC(=O)c1cc(NC(=O)c2ccc([N+](=O)[O-])cc2)c(=O)oc1C,–,inconclusive: -18.8%
Cc1cc(C)n(-c2nc(NCCN(C)C)c3c4c(sc3n2)COC(C)(C)C4)n1,–,inconclusive: -20.6%
Cc1cc(=O)n(CCc2ccccc2)c(O)c1C#N,–,inconclusive: 2.58%
CCC(C)(C)C1CCc2[nH]nc(C(=O)N/N=C(\C)c3ccco3)c2C1 (centres undefined),–,inactive
Cc1ccc(S(=O)(=O)N2CCCC2C(=O)OCc2nc3ccccc3s2)cc1 (centres undefined),–,inconclusive: 1.83%
COc1ccc(N2CCN(C(=O)CSc3nnc4c(C)cc5c(C)cc(C)cc5n34)CC2)cc1,–,inconclusive: 12.8%
CCn1c(COc2ccc(=O)n(-c3ccccc3)n2)nnc1SCc1ccc(C)cc1,–,inconclusive: 7.1%
CC1CCCN(C2=C(NS(=O)(=O)c3ccc(Br)cc3)C(=O)c3ccccc3C2=O)C1 (centres undefined),–,inactive
CN(C)Cc1c(O)ccc2oc(Cc3ccccc3)cc12,–,inconclusive: 19.7%
Clc1ccccc1N=C1NN=C(c2cccs2)CS1,"inconclusive: 28.2 µM [falling, single point]",–
CC(=O)Nc1ccc(C(=O)/C=C/c2ccco2)cc1,–,inactive
COc1ccc(OC)c(S(=O)(=O)Nc2ccc(Oc3ccccc3)cc2)c1,–,inactive
C=C(C)c1cccc(C(C)(C)NC(=O)Nc2cc(C)ccn2)c1,–,inconclusive: 0.545%
CCN1CCCC1CNC(=O)c1cc2cc(OC)c(OC)cc2[nH]1 (centres undefined),–,inconclusive: 4.06%
Cc1ccc(C(=O)N/C(=C/C=C/c2ccccc2)C(=O)NCc2ccco2)cc1,–,inconclusive: 4.34%
Cc1ccc(NC(=O)CCNS(=O)(=O)c2ccc(Br)cc2)cc1S(=O)(=O)N1CCOCC1,–,inconclusive: 17%
NC(=O)CNC(=O)[C@@H]1CC2(CC(c3cccc(Br)c3)=NO2)CN1C(=O)c1ccc(Br)cc1 (some centres undefined),–,inconclusive: 1.22%
O=C(CC1OC(=O)c2ccccc21)Nc1cccc(S(=O)(=O)N2CCCCCC2)c1 (centres undefined),–,inconclusive: -11.1%

# Retrieved by structure from the list above (3):
SMILES,Potency,"activity change, negative = inhibition"
CC(=O)c1cc(NC(=O)c2ccc([N+](=O)[O-])cc2)c(=O)oc1C,–,inconclusive: -18.8%
CC(=O)Nc1ccc(C(=O)/C=C/c2ccco2)cc1,–,inactive
CCOc1ccccc1OCC(=O)Nc1nc2ccccc2[nH]1,–,inconclusive: -23.7%

# Reference: PubChem BioAssay AID493014 (National Center for Advancing Translational Sciences (NCATS), 2011)
